# Data taken from patent publication US6682740B1 (Yeda Research and Development Co. Ltd., priority 1997, dated 2004).
# Values joined by “and” are separate entries in the source; they are usually repeats but may differ in a detail not shown here. Identical values can stand only once. At least one peptide structure holds a part that was inferred or is arguable (an end, a ring closure or a residue). Residues, ends and D or L forms follow the SMILES beside them.
# System: Ovalbumin-Sensitized Guinea Pig Model
# Assay: Anaphylactic shock in ovalbumin-sensitized guinea pig model (death, respiratory parameters)
# Type: in vivo
# Conditions: sensitized GPs, aerosolized C3a9 ~7 μg/GP during 10 min, challenged with OA ~105 μg/GP for 1.5 min; dead/total
smiles,measurement,value
CC[C@H](C)[C@H](NC(=O)[C@H](Cc1ccc(O)cc1)NC(=O)[C@H](CC(N)=O)NC(=O)[C@H](CS)NC(=O)[C@H](CS)NC(=O)[C@@H](N)CC(=O)O)C(=O)N[C@H](C(=O)N[C@@H](CCCNC(=N)N)C(N)=O)[C@@H](C)O [C3a9] (H-DCCNYITR-NH2),Incidence of Death,2 out of 8 and 2/8
